Measured values: publication PMC5399188
No constants are given. Whether binding was seen depends on the method and setting. In cells and extracts the contact can be indirect. Some binding calls cover weakened binding; strength is not graded here. Tags and fused reporters may be left off the sequences shown.

Protein sequences, listed by entry. Tags and fused reporters are not part of them.
UniProt Q15796: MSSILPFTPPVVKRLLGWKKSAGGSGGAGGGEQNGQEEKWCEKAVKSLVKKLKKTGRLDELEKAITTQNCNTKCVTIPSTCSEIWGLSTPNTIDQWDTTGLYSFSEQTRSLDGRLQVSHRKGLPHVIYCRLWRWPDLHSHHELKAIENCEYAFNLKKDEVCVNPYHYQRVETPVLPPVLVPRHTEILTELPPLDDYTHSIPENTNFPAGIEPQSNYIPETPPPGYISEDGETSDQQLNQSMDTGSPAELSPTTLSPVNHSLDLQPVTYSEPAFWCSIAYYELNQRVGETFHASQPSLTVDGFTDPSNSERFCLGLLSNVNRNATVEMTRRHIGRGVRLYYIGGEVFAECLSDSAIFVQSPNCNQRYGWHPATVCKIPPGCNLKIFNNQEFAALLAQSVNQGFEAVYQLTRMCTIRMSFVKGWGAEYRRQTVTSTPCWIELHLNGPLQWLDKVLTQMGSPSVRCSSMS
UniProt P84022: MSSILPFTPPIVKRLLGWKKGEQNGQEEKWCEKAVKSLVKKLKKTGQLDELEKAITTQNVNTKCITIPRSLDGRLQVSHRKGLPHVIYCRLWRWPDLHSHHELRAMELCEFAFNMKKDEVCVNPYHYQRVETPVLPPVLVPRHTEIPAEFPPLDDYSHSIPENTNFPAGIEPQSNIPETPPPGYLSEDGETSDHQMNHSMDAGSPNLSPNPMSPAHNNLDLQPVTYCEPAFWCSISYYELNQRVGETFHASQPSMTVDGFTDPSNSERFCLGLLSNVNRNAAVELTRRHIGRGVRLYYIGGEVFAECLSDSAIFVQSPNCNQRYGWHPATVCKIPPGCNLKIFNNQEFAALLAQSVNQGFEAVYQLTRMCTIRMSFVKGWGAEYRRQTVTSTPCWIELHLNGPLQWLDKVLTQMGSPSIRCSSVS

Experiments:
[1] = molecular target: T1, FLAG-VN173-AIMP1 (aminoacyl-tRNA synthetase-interacting multifunctional protein 1) (UniProt Q12904); experiment: split reporter; BiFC (Venus VN173 + VC155) in HEK293 cells co-transfected for 24 h; fluorescence images
T1 sequence: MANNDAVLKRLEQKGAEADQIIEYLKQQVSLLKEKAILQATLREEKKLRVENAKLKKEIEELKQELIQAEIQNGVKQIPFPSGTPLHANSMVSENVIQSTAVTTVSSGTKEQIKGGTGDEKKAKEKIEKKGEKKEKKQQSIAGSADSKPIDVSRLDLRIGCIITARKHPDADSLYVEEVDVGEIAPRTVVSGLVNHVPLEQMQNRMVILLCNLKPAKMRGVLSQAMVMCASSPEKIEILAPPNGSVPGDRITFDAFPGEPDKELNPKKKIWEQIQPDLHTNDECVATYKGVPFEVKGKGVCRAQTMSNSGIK

[2] = molecular target: T1, FLAG-VN173-AIMP1 (aminoacyl-tRNA synthetase-interacting multifunctional protein 1); experiment: split reporter; BiFC competition in HEK293 cells: FLAG-VN173-AIMP1 with 0.5 ug HA-VC155-SMAD2 or -SMAD3 in the presence or absence of Myc-AIMP1 (0.1, 0.5 or 1 ug); read 24 h after transfection, fluorescent signals counted
[3] = molecular target: T1, FLAG-VN173-AIMP1 (aminoacyl-tRNA synthetase-interacting multifunctional protein 1); experiment: co-IP; HEK293 cells transfected with FLAG-VN173-AIMP1 and HA-VC155-SMAD2/3; RIPA lysate (300 ug) precipitated with anti-FLAG antibody and protein G agarose at 4 C, blotted with anti-HA or anti-FLAG

Measured: binding

HA-VC155-SMAD2 (from UniProt Q15796 1-467)
binds: all assays above

HA-VC155-SMAD3 (from UniProt P84022 1-425)
binds: all assays above
